The target of assay [1] is T1, IRF1 (human (endogenous in HUVEC)) (UniProt P10914).
T1 sequence: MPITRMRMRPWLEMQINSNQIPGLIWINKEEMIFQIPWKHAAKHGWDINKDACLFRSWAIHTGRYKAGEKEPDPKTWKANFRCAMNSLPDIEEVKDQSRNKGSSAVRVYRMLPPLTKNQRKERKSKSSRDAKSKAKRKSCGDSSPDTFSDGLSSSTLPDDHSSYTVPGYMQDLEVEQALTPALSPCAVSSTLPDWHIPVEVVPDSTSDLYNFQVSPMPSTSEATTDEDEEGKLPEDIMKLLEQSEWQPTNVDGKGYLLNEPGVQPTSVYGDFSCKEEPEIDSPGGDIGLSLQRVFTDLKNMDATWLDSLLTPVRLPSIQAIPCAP
The assay can be described thus: co-IP; lysates of HUVEC cells with or without human IFN-γ (50 ng/mL) for 8 h; IP with anti-KPNA4 or anti-IRF1 antibody, western blotting for IRF1 or KPNA4. (In western blotting, separated proteins are transferred to a membrane and probed.)

Amino acid sequences for entries named in this document (tags omitted).
UniProt O00629: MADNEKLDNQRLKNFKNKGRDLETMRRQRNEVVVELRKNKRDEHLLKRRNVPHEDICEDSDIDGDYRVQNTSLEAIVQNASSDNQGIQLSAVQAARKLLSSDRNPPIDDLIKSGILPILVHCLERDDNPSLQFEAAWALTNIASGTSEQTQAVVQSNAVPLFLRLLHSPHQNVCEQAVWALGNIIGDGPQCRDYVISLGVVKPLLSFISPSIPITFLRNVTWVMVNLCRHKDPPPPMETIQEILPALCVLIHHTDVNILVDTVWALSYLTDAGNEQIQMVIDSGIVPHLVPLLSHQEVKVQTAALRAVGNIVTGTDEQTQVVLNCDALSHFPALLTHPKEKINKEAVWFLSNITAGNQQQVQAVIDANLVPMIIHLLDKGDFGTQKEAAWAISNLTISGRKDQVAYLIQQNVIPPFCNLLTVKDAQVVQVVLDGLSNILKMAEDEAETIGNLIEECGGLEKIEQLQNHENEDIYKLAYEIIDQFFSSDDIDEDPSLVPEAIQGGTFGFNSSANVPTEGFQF

Assay [2] has as its target KPNA4 (human (endogenous in HUVEC)) (UniProt O00629). Described as above.

These are yes or no findings as the source states them, for the method shown. In cells and extracts the contact can be indirect. Some entries that bind do so weakly or less than the wild type.

Turning to KPNA4 (from UniProt O00629 1-521), in assay [1], the binding result is recorded as “binds”.

B1: IRF1 (protein, UniProt P10914 1-325)
chain: MPITRMRMRPWLEMQINSNQIPGLIWINKEEMIFQIPWKHAAKHGWDINKDACLFRSWAIHTGRYKAGEKEPDPKTWKANFRCAMNSLPDIEEVKDQSRNKGSSAVRVYRMLPPLTKNQRKERKSKSSRDAKSKAKRKSCGDSSPDTFSDGLSSSTLPDDHSSYTVPGYMQDLEVEQALTPALSPCAVSSTLPDWHIPVEVVPDSTSDLYNFQVSPMPSTSEATTDEDEEGKLPEDIMKLLEQSEWQPTNVDGKGYLLNEPGVQPTSVYGDFSCKEEPEIDSPGGDIGLSLQRVFTDLKNMDATWLDSLLTPVRLPSIQAIPCAP
Regarding B1, the binding result in assay [2] was “binds”.

These data come from paper PMC11574084.
